Data published in PubChem BioAssay AID2551 (National Center for Advancing Translational Sciences (NCATS), 2010).
The campaign covered roughly 310,000 compounds. About 17,000 (5.5%) were called active. The inconclusive results got no clear call from the source; some entries with a clear call stand among them for comparison. The call rests on the fitted dose curve; in most records, active means well fitted inhibition curve with a large enough effect; inconclusive means small, poorly fitted or top-dose-only effect, or effect the other way; inactive means no such curve, though single readings can be large or run the other way. Where the call is inconclusive, the potency comes from a doubtful curve fit.

Amino acid sequences for entries named in this document (tags omitted). A change or cut given only in a name is not applied to a line headed by its entry.
UniProt P51450: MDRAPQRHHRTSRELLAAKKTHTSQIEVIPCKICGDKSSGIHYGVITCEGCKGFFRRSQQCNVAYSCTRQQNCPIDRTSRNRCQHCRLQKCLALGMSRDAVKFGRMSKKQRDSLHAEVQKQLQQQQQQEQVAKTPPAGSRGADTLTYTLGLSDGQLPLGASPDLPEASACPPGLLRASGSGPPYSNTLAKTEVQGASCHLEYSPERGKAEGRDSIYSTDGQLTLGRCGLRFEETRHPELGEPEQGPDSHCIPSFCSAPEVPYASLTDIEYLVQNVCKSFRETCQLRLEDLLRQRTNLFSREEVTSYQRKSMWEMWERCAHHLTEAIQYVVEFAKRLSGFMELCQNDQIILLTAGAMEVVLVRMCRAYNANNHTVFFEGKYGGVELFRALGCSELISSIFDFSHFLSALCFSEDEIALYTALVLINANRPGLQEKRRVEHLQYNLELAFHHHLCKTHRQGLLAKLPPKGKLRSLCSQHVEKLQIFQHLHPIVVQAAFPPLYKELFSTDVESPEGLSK

target: Nuclear receptor ROR-gamma (Mus musculus) (UniProt P51450); assay: qHTS for inhibitors of ROR gamma transcriptional activity; details: Drosophila S2 Gal4-RORgamma UAS-luciferase reporter, 20 h; activity change, negative = inhibition: at 53.6 µM (top of the series); further: nearly all actives have a fitted effect of over 60% in size
How it was run: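 Stable Schneider cell line, Gal4 DNA-binding domain fused to ROR gamma, UAS-luciferase. Cmpd 1 hr RT → CuSO4 700 uM final → 20 hr RT → luciferase reagent 10 min → luminescence.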
On the % scale 0 is the no-effect control and ±100 the full control effect; potency means the concentration at half of the fitted maximal effect.

Potency, inconclusive:
COc1ccc(Nc2nc(-c3cccnc3)cs2)c(OC)c1 10 µM [activator, partial curve], Cc1c(Cl)cnc(NC(=O)COC(=O)c2ccc(S(=O)(=O)NCc3ccco3)cc2)c1Cl 0.0447 µM [inhibitor, full curve, poor fit], O=[N+]([O-])c1cccc(-c2noc(-c3ccco3)n2)c1 1.26 µM [activator, partial curve], Cc1ccc(OCCn2c(C)c(/C=N/n3cnnc3)c3ccccc32)cc1 35.5 µM [inhibitor, single point], COc1ccc2nc(SCC(=O)NCc3ccccc3)[nH]c2c1 0.005 µM [activator, full curve, poor fit], CN(c1ccc(OCc2ccc([N+](=O)[O-])cc2)cc1)S(=O)(=O)c1ccccc1 35.5 µM [activator, single point], CCOC(=O)C1(CCCc2ccccc2)CCN(S(C)(=O)=O)CC1 10 µM [activator, partial curve], CCOC(=O)N1CCC(N(CCN(C)C)C(=S)Nc2cccc(Cl)c2C)CC1 17.8 µM [inhibitor, single point], Cc1cc(C(=O)CSc2nnnn2-c2ccc(Cl)cc2)c(C)n1CC1CCCO1 (stereo unspecified) 20 µM [inhibitor, single point], CC(C)S(=O)(=O)c1csc(C(=O)NN)c1-n1cccc1 35.5 µM [inhibitor, single point], COc1cccc(Cn2nnc(C(=O)NCc3ccc(F)cc3)c2N)c1 17.8 µM [inhibitor, single point], Cc1nc(Nc2cnc(/C=C/c3cc(C(=O)Nc4cccc(C(F)(F)F)c4)ccc3C)cn2)cc(N2CCNCC2)n1 35.5 µM [inhibitor, single point], C=CCNC(=O)/C(C#N)=C/c1c(C)nn(-c2ccccc2)c1Cl 25.1 µM [inhibitor, single point], CCOCCCNc1nc(C(F)(F)F)nc2c1nnn2Cc1ccccc1Cl 14.1 µM [activator, single point], CN(c1ccccc1)S(=O)(=O)c1cccc(C(=O)Nc2ccc3c(c2)CCC3)c1 12.6 µM [activator, partial curve], COc1cccc(CNc2cnc3ccccc3c2)c1O 2 µM [activator, partial curve], C/C(=N\NC(=O)c1ccco1)c1ccc(NC(=O)c2ccccc2)cc1 22.4 µM [inhibitor, single point], O=C(C1=C[C@@H](C2CC2)C[C@@H](OCc2ccc(CO)cc2)O1)N1CCOCC1 35.5 µM [activator, single point], Cc1ccc(C(=O)/C=C/c2ccc(F)cc2)o1 22.4 µM [inhibitor, single point], COc1cc(OC)cc(C(=O)Nc2c(F)cccc2F)c1 1 µM [activator, full curve, poor fit], CCOc1ccccc1OCCC(=O)Nc1ccc(F)c(Cl)c1 8.91 µM [activator, partial curve], O=C(c1ccncc1)c1ccc(NC(=O)c2cccs2)cc1 14.1 µM [activator, partial curve], O=C1CC(Nc2ccc(N3CCOCC3)cc2)C(=O)N1Cc1ccccc1 (stereo unspecified) 20 µM [inhibitor, partial curve], CN(C)CCNC(=O)c1sc2nc(-c3ccccc3)cc(C(F)(F)F)c2c1N 14.1 µM [inhibitor, single point], CC1(C)OC(=O)N(c2ccccc2)C12C=Cc1c(ccc3ccccc13)O2 (stereo unspecified) 35.5 µM [activator, single point], COc1ccc(N2C(=O)CSC2c2cccs2)cc1 (stereo unspecified) 0.794 µM [activator, single point], COc1cc(-c2cc(C(=O)Nc3cccc(S(=O)(=O)N(C)C)c3)c3ccccc3n2)cc(OC)c1OC 35.5 µM [inhibitor, single point]

Potency, active:
Fc1cccc(CCN2C(=S)NC[C@@H]2Cc2ccccc2)c1 2.24 µM, COc1ccc(NC(=O)/C(C#N)=C\c2ccc(-c3cccc(C(=O)O)c3C)o2)cc1 3.98 µM, Cc1cccc(C(=O)Nc2nnc(-c3cccnc3)o2)c1 0.708 µM, CC1Cc2ccccc2N1C(=S)NC(=O)c1ccc(Cl)cc1Cl (stereo unspecified) 0.355 µM, Cc1cccc(NC(=S)c2nc3ccccc3s2)c1 1.12 µM, Cc1cc(/C=N/NC(=O)c2ccccc2F)c(C)n1-c1ccccc1 12.6 µM, C[C@@H](C(=O)O)c1ccc(N2Cc3ccccc3C2=O)cc1 1.12 µM, C=CCSc1nc2ccccc2n1C(=O)/C=C/c1cc(OC)c(OC)c(OC)c1 3.55 µM, NC(=O)c1ccc(-c2ncc(-c3ccccc3)o2)cc1 1.78 µM

Activity change, negative = inhibition, inactive:
CCOC(=O)/C(C#N)=C/C1=C(N2CCOCC2)C(C)(C)OCC1 3.37%, O=C(CCn1c(=O)oc2ccccc21)NCCC1=CCCCC1 0.452%, COc1ccc(OCC(=O)c2c(O)c3ccccc3oc2=O)cc1 -8.25%, COc1ccccc1CNC(=O)c1ccccc1NC(=O)C1=C(C)OCCS1 21.5%, COc1ccc(C)cc1NC(=O)NNC(=O)c1cc2ccccc2cc1O -18.8%, CC(=O)c1ccc(NC(=S)NC(=O)/C=C/c2ccccc2)cc1 -23.5%, CC(C)N1CC(O)=C(c2nc3ccccc3[nH]2)C1=N -17.8%, CC(C)[C@H](NC(=O)[C@@H]1Cc2ccccc2CN1C(=O)OC(C)(C)C)C(=O)NCC1CCC(C(=O)O)CC1 (stereo partly specified) 18.7%, O=C(NCC1CCCN(Cc2cccc(C(F)(F)F)c2)C1)c1ccc(F)cc1 (stereo unspecified) -0.251%, O=C(NC1CCCCC1)N1CCCC(c2nc(-c3cccs3)no2)C1 (stereo unspecified) 26.3%
